Earlier results, collected in US20240085426A1, “TRIPLE QUADRUPOLE-BASED MULTIPLE REACTION MONITORING FOR CLINICAL THERAPEUTIC RESPONSE PREDICTION IN CANCER” (NATIONAL CANCER CENTER, priority 2020, published 2024).
At least one compound was matched to its structure with a doubt left.

System: KATO-III
Conditions: FGFR2-amplified cell line KATO-III compared with SNU-5 cell line; existing literature report; cited from earlier work

CN1CCN(c2ccc3nc(-c4c(N)c5c(F)cccc5[nH]c4=O)[nH]c3c2)CC1 [dovitinib]
response to FGFR inhibitor: relatively higher
